Drawing on PubChem BioAssay AID248 (DTP/NCI, 2004), this text covers T/C and survivor count for nine compounds.

The list does not hold the whole screen: it gathers some chemical classes. Other doses and runs of a compound may be missing. T/C: endpoint of the treated group in % of that of the vehicle group. Some doses have a count of surviving animals in place of a T/C: the source files T/C as zero there, which appears to mark a toxic dose or a test without result, not a measured value. Some survivor counts are full or nearly so, which does not show that the dose was tolerated: survival well below the control is almost never listed, so the zero probably covers shortened survival too. Survivors were counted at the toxicity check, usually on the fifth day, unless a day is given; later deaths do not show. Schedule codes are those of the source, taken here to give the interval after Q, in days (D) or hours (H), and the number of doses after X. For survival time, the PubChem record calls one and a half times the control and up active, and a quarter to a half above the control has no call in these data; cut-offs in other NCI protocols can differ. Some schedule codes hold Z or #, which are not explained here. Some entries show no survivor count and are marked so; the dose need not have been tolerated. Some T/C values carry the count of animals alive at the toxicity check (mostly the fifth day); where neither a count nor a note follows, no animal had died by that day.

The subject of this assay is L1210 leukemia ip in BDF1 mice, survival T/C. The assay can be described thus: NCI In Vivo Anticancer Drug Screen. Data for tumor model L1210 Leukemia (intraperitoneal) in B6D2F1 (BDF1) mice. The note with it: T/C endpoint: mean survival time, higher T/C = longer survival.
[1] abbreviates: dose: 100.0 mg/kg/injection, schedule: Q04DX003 (ip), vehicle: saline.
The mark [2] stands for this setting: dose: 200.0 mg/kg/injection, schedule: Q04DX003 (ip), vehicle: saline.
The mark [3] stands for this setting: dose: 400.0 mg/kg/injection, schedule: Q04DX003 (ip), vehicle: saline.
[4] abbreviates: dose: 100.0 mg/kg/injection, schedule: Q01DX001 (ip), vehicle: saline.
Where [5] appears, read: dose: 200.0 mg/kg/injection, schedule: Q01DX001 (ip), vehicle: saline.
[6] abbreviates: dose: 400.0 mg/kg/injection, schedule: Q01DX001 (ip), vehicle: saline.

On to `OCCF`, for which the T/C was 113 % of control (dose: 1.5 mg/kg/injection, schedule: Q01DX009 (ip), vehicle: saline); 106 % of control (dose: 1.5 mg/kg/injection, schedule: Q04DX003 (ip), vehicle: saline); 117 % of control [5 of 6 alive] (dose: 3.0 mg/kg/injection, schedule: Q04DX003 (ip), vehicle: saline). Besides, the survivor count is, setting by setting: (dose: 3.0 mg/kg/injection, schedule: Q01DX009 (ip), vehicle: saline) 0 of 6; (dose: 6.0 mg/kg/injection, schedule: Q01DX009 (ip), vehicle: saline) 0 of 6; (dose: 6.0 mg/kg/injection, schedule: Q04DX003 (ip), vehicle: saline) 0 of 6; (dose: 12.5 mg/kg/injection, schedule: Q04DX003 (ip), vehicle: saline) 0 of 6; (dose: 25.0 mg/kg/injection, schedule: Q04DX003 (ip), vehicle: saline) 0 of 6; (dose: 50.0 mg/kg/injection, schedule: Q04DX003 (ip), vehicle: saline) 0 of 6. Also, the survivor count under setting [1] is listed as 0 of 6, the survivor count under setting [2] is recorded as 0 of 6 and the survivor count under setting [3] is recorded as 0 of 6.

On to `N#C/C(=C\c1ccc(N(CCBr)CCBr)cc1)C(N)=O`, for which the T/C is 112 % of control (dose: 1.0 mg/kg/injection, schedule: Q01DX009 (ip), vehicle: Klucel (hydroxypropylcellulose) (HPC)); 117 % of control (dose: 1.0 mg/kg/injection, schedule: Q01DX015 (ip), vehicle: carboxymethylcellulose (CMC)); 122 % of control (dose: 1.7 mg/kg/injection, schedule: Q04DX003 (ip), vehicle: Klucel (hydroxypropylcellulose) (HPC)); 109 % of control (dose: 2.0 mg/kg/injection, schedule: Q01DX009 (ip), vehicle: Klucel (hydroxypropylcellulose) (HPC)); 128 % of control (dose: 2.0 mg/kg/injection, schedule: Q01DX015 (ip), vehicle: carboxymethylcellulose (CMC)); 125 % of control (dose: 2.6 mg/kg/injection, schedule: Q04DX003 (ip), vehicle: Klucel (hydroxypropylcellulose) (HPC)). Moreover, the T/C is, setting by setting: (dose: 4.0 mg/kg/injection, schedule: Q01DX009 (ip), vehicle: Klucel (hydroxypropylcellulose) (HPC)) 114 % of control [5 of 6 alive]; (dose: 4.0 mg/kg/injection, schedule: Q01DX015 (ip), vehicle: carboxymethylcellulose (CMC)) 140 % of control; (dose: 4.0 mg/kg/injection, schedule: Q04DX003 (ip), vehicle: Klucel (hydroxypropylcellulose) (HPC)) 120 % of control; (dose: 6.0 mg/kg/injection, schedule: Q04DX003 (ip), vehicle: Klucel (hydroxypropylcellulose) (HPC)) 115 % of control; (dose: 8.0 mg/kg/injection, schedule: Q01DX009 (ip), vehicle: Klucel (hydroxypropylcellulose) (HPC)) 95 % of control; (dose: 8.0 mg/kg/injection, schedule: Q04DX003 (ip), vehicle: Klucel (hydroxypropylcellulose) (HPC)) 127 % of control. Also, the T/C was 119 % of control (dose: 16.0 mg/kg/injection, schedule: Q04DX003 (ip), vehicle: Klucel (hydroxypropylcellulose) (HPC)) and 90 % of control (dose: 32.0 mg/kg/injection, schedule: Q04DX003 (ip), vehicle: Klucel (hydroxypropylcellulose) (HPC)). For the same compound, the survivor count (dose: 8.0 mg/kg/injection, schedule: Q01DX015 (ip), vehicle: carboxymethylcellulose (CMC)) is on record as 3 of 6; the survivor count (dose: 64.0 mg/kg/injection, schedule: Q04DX003 (ip), vehicle: Klucel (hydroxypropylcellulose) (HPC)) was 4 of 6; the survivor count (dose: 128.0 mg/kg/injection, schedule: Q04DX003 (ip), vehicle: Klucel (hydroxypropylcellulose) (HPC)) is reported as 1 of 6.

In the case of `OC(SC(O)C(Cl)(Cl)Cl)C(Cl)(Cl)Cl` (configuration not stated), the T/C is 96 % of control (dose: 100.0 mg/kg/injection, schedule: Q01DX009 (sc), vehicle: olive oil, sesame oil, peanut oil); 102 % of control (dose: 100.0 mg/kg/injection, schedule: Q04DX003 (sc), vehicle: olive oil, sesame oil, peanut oil); 89 % of control (dose: 200.0 mg/kg/injection, schedule: Q01DX009 (sc), vehicle: olive oil, sesame oil, peanut oil); 113 % of control (dose: 200.0 mg/kg/injection, schedule: Q04DX003 (sc), vehicle: olive oil, sesame oil, peanut oil); 97 % of control (dose: 400.0 mg/kg/injection, schedule: Q01DX009 (sc), vehicle: olive oil, sesame oil, peanut oil); 102 % of control (dose: 400.0 mg/kg/injection, schedule: Q04DX003 (sc), vehicle: olive oil, sesame oil, peanut oil).

Turning to `CN/C(N)=N/[N+](=O)[O-]`, the T/C (dose: 75.0 mg/kg/injection, schedule: Q01DX001 (ip), vehicle: Klucel (hydroxypropylcellulose) (HPC)) was 92 % of control [survivor count not shown]; the T/C (dose: 150.0 mg/kg/injection, schedule: Q01DX001 (ip), vehicle: Klucel (hydroxypropylcellulose) (HPC)) is 100 % of control [survivor count not shown]; the T/C (dose: 300.0 mg/kg/injection, schedule: Q01DX001 (ip), vehicle: Klucel (hydroxypropylcellulose) (HPC)) was 100 % of control [survivor count not shown].

As for `O=C(Cc1ccccc1)OC1CN2CCC1CC2` (configuration not stated), the T/C reads like this: (dose: 25.0 mg/kg/injection, schedule: Q04DX002 (ip), vehicle: saline) 97 % of control; (dose: 50.0 mg/kg/injection, schedule: Q04DX002 (ip), vehicle: saline) 97 % of control. Also, for the setting “dose: 100.0 mg/kg/injection, schedule: Q04DX002 (ip), vehicle: saline”, the survivor count is reported as 1 of 3.

`N#CCCN[N+](=O)[O-]`: the T/C is 95 % of control [survivor count not shown] under setting [4]; 105 % of control [survivor count not shown] under setting [1]; 88 % of control [survivor count not shown] under setting [5]; 101 % of control [survivor count not shown] under setting [2]; 100 % of control [survivor count not shown] under setting [6]; 108 % of control [survivor count not shown] under setting [3].

`COP(=S)(Cl)OC`: the T/C was 94 % of control (dose: 75.0 mg/kg/injection, schedule: Q01DX001 (ip), vehicle: saline) and 90 % of control (dose: 150.0 mg/kg/injection, schedule: Q01DX001 (ip), vehicle: saline). Further, the survivor count (dose: 300.0 mg/kg/injection, schedule: Q01DX001 (ip), vehicle: saline) is 1 of 6.

Regarding `NC1CCCCC1.O=P(O)(N(CCCl)CCCl)N1CCCCC1`, the T/C (dose: 16.0 mg/kg/injection, schedule: Q01DX Z (ip), vehicle: saline) was 100 % of control; the T/C (dose: 32.0 mg/kg/injection, schedule: Q01DX Z (ip), vehicle: saline) is 92 % of control; the T/C (dose: 64.0 mg/kg/injection, schedule: Q01DX Z (ip), vehicle: saline) was 109 % of control; the T/C (dose: 128.0 mg/kg/injection, schedule: Q01DX Z (ip), vehicle: saline) was 118 % of control.

`CCN(CC)[P+](Oc1ccccc1)(N(CC)CC)N(CC)CC.F[P-](F)(F)(F)(F)F`: the T/C (dose: 5.0 mg/kg/injection, schedule: Q01DX001 (ip), vehicle: saline) is 101 % of control; the T/C (dose: 10.0 mg/kg/injection, schedule: Q01DX001 (ip), vehicle: saline) was 113 % of control; the T/C (dose: 20.0 mg/kg/injection, schedule: Q01DX001 (ip), vehicle: saline) was 111 % of control; the T/C (dose: 40.0 mg/kg/injection, schedule: Q01DX001 (ip), vehicle: saline) is 105 % of control; the T/C (dose: 80.0 mg/kg/injection, schedule: Q01DX001 (ip), vehicle: saline) is 103 % of control [5 of 6 alive]. Besides, the survivor count under setting [4] is recorded as 1 of 4, the survivor count under setting [5] is 0 of 4 and the survivor count under setting [6] is reported as 0 of 4.
